Assay results: PMC12081465
These are yes or no findings as the source states them, for the method shown. Binding seen in cells or lysates may run through a third protein. Some results given as binding are weak or reduced against the parent protein; the word gives no strength.

The chains behind the UniProt entries cited, without tags or fusion partners.
UniProt O43809: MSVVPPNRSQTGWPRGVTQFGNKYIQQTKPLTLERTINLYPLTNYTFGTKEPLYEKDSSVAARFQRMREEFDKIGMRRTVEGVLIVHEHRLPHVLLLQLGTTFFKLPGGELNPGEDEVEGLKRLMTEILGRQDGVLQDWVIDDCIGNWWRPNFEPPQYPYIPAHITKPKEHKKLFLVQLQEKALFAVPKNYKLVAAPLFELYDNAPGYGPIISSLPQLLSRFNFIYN
UniProt Q16630: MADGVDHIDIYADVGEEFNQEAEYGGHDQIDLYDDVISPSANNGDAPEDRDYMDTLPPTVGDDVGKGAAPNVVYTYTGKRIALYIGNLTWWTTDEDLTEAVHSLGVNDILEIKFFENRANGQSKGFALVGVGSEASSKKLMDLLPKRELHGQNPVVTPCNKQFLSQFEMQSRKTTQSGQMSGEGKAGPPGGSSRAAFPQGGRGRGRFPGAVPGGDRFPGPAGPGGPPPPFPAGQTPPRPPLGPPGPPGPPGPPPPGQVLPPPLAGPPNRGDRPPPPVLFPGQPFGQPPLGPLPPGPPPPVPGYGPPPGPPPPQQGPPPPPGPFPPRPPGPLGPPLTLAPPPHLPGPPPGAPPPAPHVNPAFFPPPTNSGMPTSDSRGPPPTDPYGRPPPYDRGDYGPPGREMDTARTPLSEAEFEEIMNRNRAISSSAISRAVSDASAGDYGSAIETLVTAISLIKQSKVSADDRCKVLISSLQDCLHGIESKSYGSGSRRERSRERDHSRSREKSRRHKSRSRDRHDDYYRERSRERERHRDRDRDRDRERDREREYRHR

Biological target: NUDT21 (human (endogenous in THP-1)) (UniProt O43809)
Assay: co-IP

With CPSF6 (from UniProt Q16630 1-551) the binding was “binds”.
